Laboratory results: publication PMC5351981
These are yes or no findings as the source states them, for the method shown. In cells and extracts the contact can be indirect. Some entries that bind do so weakly or less than the wild type.

Target: T1, GAGA factor (GAF) (Drosophila (endogenous in embryos)) (UniProt Q08605)
T1 sequence: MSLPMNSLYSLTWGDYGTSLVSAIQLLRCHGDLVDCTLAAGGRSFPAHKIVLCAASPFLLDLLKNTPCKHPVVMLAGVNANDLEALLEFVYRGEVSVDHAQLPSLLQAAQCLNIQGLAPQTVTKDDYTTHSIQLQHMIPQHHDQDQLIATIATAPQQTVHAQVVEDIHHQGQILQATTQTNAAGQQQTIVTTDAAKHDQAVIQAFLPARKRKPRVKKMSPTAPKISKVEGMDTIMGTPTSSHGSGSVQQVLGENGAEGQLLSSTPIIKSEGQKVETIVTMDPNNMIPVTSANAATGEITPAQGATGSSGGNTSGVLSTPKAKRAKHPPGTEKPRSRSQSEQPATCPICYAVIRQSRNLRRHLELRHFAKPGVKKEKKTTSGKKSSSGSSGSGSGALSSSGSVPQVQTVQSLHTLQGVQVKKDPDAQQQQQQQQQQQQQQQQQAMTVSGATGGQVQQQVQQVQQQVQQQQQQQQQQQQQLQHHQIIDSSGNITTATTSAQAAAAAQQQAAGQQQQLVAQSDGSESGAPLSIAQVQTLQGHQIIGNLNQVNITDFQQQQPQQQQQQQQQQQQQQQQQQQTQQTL
Test: co-IP; 100 ug nuclear extract of 0-12 h Drosophila embryos incubated with anti-GAF antibodies on protein A beads or beads alone (Mock), in the presence or absence of DNaseI (0.5 U); washed with HEMG-500 plus 0.1% Nonidet P-40; co-IP'd proteins detected by Western blotting

B1: Su(z)12 (protein, UniProt Q9NJG9 1-900)
chain: MAPAKKREKDSNPDGSAANGIIGLTHGAPDASNAGSTVPPTAEGQVKLNGHQQEQELFLQAFEKPTQIYRYLRNRHETNPIFLNRTLSYMKERMSRNNKKRISFQVNSMLESITQKSEAVSQNYLHVIYDSLHEKLPARLDNESGEDLLQEQLLCEAGESVSVETTLYKITRSKRKDSTLDFQELLSKCSQIVYNPKDRVGEHATISIPLQTMRPMGEQHTLYKLLFRIKVLSPSTCNDENAETPPNKRSRPNEKMFGSELILYEKSSGFITEGEYEAMLQPLNSTSIKSFSPKKCTWETMPDSYIPLSLTYDVYQQSPMLKFHLTLSNEQLPEMISAPELQRYVQHLDAVAEMNYNNNNYNNNNNCSGLKNGSGGGNSTVCKTTPEHIQIVYNFMYSNNTRQQTEYTQELNCPWCGLDCLRLYALLKHLKLCHARFNFTYQPAGSGARIDVTINDAYDGSYAGSPYDLAGPSGSSFARTCGPVRRTSVTSLMVCRPRRQKTCLDEFLELDEDEISNQRSYITGHNRLYHHTETCLPVHPKELDIDSEGESDPLWLRQKTIQMIDEFSDVNEGEKELMKLWNLHVMRHGFVGDCQLPIACEMFLDAKGTEIVRKNLYRNFILHMCSLFDYGLIAAETVYKTVQKLQGLLSKYAAGQELMQRQREEQLKYWLDVGMHKKQEDPKTLKSPQKPAPPADQASTSSASTSGSGSGSSSMQPPKRMPAHLKRGSAASSPGVQSKGTENGTNGSNSSSSNSKNVAKKSADQPLSTLANTRERRSEYGQKRNVSGSRLAATPASKRKLSSKDNTVLNKRQRYSDGSPGTGIGNGHGGGSGSGANRNKSNNHSLPATSNNASSSSSNSKRAIARRRSTSERTKASGSTGGGAGGVRTRLSVPAKYERR
For B1, the binding was “binds”.
